These are yes or no findings as the source states them, for the method shown. Binding seen in cells or lysates may run through a third protein. Where a sequence is shown, tags or fusion partners need not be part of it.
Target: T1, GST::SEM-5 (C. elegans) (UniProt P29355)
T1 sequence: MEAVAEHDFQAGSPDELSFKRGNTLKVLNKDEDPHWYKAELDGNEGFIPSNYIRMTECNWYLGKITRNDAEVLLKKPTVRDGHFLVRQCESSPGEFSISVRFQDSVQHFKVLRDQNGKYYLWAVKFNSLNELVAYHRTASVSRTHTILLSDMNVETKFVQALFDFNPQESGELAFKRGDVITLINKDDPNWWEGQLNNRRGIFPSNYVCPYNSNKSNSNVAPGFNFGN
Test: pull-down; in vitro labelled protein from a reticulocyte lysate transcription/translation reaction pulled down with purified GST or GST fusion proteins (~200 ng per pull down); input set at 5%; only the target purified

The chains behind the UniProt entries cited, without tags or fusion partners.
UniProt P08659: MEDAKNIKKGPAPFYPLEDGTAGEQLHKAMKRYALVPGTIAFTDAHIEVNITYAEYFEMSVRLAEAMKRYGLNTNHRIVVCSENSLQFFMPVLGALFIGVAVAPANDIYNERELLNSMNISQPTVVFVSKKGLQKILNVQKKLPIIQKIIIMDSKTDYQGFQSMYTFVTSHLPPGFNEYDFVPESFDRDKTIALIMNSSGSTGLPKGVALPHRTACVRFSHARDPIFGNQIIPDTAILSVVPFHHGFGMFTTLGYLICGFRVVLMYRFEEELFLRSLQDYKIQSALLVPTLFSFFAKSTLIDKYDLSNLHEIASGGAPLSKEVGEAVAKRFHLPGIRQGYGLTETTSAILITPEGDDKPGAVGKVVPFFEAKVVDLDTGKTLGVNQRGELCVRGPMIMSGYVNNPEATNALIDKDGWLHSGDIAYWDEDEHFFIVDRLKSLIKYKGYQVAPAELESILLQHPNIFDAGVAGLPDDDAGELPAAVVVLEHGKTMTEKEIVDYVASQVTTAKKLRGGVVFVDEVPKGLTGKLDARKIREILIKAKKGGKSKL

labelled luciferase (from UniProt P08659 1-550) (enzyme)
binding: no binding (tested: ~200 ng GST fusion protein per pull down)
